According to paper doi:10.1101/459040:
No constants are given. Whether binding was seen depends on the method and setting. In cells and extracts the contact can be indirect. Some results given as binding are weak or reduced against the parent protein; the word gives no strength.

By UniProt entry, the sequences of proteins in these tests, tags left out. Where a name states a change or a piece, a line headed by the entry shows the natural chain unless it says otherwise. Chains listed by the source or under a name are the forms on record and can include a tag or linker.
SBP-p62 (Q9UJW0, form named): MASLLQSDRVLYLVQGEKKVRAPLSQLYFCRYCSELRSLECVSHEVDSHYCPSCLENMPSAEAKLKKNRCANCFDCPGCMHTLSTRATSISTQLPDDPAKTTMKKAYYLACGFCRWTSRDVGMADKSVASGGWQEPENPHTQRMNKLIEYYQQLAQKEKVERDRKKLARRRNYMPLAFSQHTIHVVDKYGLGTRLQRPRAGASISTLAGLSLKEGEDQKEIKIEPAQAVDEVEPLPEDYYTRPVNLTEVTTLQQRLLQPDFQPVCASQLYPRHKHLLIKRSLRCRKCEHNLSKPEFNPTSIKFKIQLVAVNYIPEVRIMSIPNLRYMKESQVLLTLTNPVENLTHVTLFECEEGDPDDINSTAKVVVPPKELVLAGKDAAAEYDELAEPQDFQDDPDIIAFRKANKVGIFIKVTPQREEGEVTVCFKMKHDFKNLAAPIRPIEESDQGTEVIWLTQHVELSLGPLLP
p50 (endogenous dynactin subunit) (Q13561-2, form named): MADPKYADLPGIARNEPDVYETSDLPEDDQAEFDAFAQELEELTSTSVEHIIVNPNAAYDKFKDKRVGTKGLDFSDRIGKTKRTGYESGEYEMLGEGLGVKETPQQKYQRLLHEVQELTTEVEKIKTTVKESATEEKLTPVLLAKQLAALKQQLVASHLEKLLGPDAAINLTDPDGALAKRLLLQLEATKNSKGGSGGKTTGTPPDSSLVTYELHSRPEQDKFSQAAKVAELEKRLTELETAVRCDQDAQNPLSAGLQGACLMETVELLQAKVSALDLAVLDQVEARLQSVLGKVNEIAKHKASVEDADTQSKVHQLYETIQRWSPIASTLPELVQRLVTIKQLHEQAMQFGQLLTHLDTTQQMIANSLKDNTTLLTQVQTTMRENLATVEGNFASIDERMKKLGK

Biological target: SBP-p62 (human) (UniProt Q9UJW0)
Experiment: pull-down

binding: binds
Substance: p50 (endogenous dynactin subunit) (from UniProt Q13561-2 1-406)
